# Experimental data reported in patent US12060400B2, “Peptides for use in immunotherapy against cancers” (Immatics Biotechnologies GmbH, priority 2018, dated 2024).
# Test system: source gene exon mRNA in tumor and normal tissue samples
# Experiment: Expression profiling (RNAseq) of genes encoding the peptides, tumor versus normal tissues
# Set-up: species or system human
# Details: RNAseq, Table 9a; for Exon Expression in tumor types vs normal tissue panel: highly over-expressed (++): tumor types in which the peptide's exon is highly over-expressed (++) vs panel of normal tissues; for Exon Expression in tumor types vs normal tissue panel: over-expressed (+): tumor types in which the peptide's exon is over-expressed (+) vs panel of normal tissues
substance,measurement,setting,value
13: peptide found in CHRNA9 (gene looked up) (KYYIATMAL; listed as Homo sapiens) [compound 13],Exon Expression in tumor types vs normal tissue panel: highly over-expressed (++),,"GBM, HNSCC, SCLC"
same,Exon Expression in tumor types vs normal tissue panel: over-expressed (+),,"MEL, NSCLCadeno, NSCLCsquam, OC, OSCAR, UBC, UEC"
same,Exon Expression in tumor types vs normal tissue panel: very highly over-expressed (+++),tumor types in which the peptide's exon is very highly over-expressed (+++) vs panel of normal tissues,NSCLCother
57: peptide found in NPSR1 (gene looked up) (RYLQVVLLY; listed as Homo sapiens) [compound 57],Exon Expression in tumor types vs normal tissue panel: highly over-expressed (++),,"CRC, GBC, GC"
same,Exon Expression in tumor types vs normal tissue panel: over-expressed (+),,"GBM, PACA"
116: peptide found in MMP1 (gene looked up) (TYFFVANKY; listed as Homo sapiens) [compound 116],Exon Expression in tumor types vs normal tissue panel: highly over-expressed (++),,"HNSCC, NSCLCsquam, OSCAR"
same,Exon Expression in tumor types vs normal tissue panel: over-expressed (+),,"CRC, GC, NSCLCadeno, PACA, UBC"
128: peptide found in NMUR2 (gene looked up) (AFQNVISSF; listed as Homo sapiens) [compound 128],Exon Expression in tumor types vs normal tissue panel: highly over-expressed (++),,"GC, PACA"
same,Exon Expression in tumor types vs normal tissue panel: over-expressed (+),,"NSCLCsquam, UEC"
150: peptide found in MRGPRX4 (gene looked up) (FIPVAWLIF; listed as Homo sapiens) [compound 150],Exon Expression in tumor types vs normal tissue panel: highly over-expressed (++),,MEL
same,Exon Expression in tumor types vs normal tissue panel: over-expressed (+),,"HNSCC, UBC"
156: peptide found in F5 (gene looked up) (IYPHGVTFSP; listed as Homo sapiens) [compound 156],Exon Expression in tumor types vs normal tissue panel: highly over-expressed (++),,HCC
same,Exon Expression in tumor types vs normal tissue panel: over-expressed (+),,CCC
165: peptide found in NAT1 (gene looked up) (KDQPQVPCVF; listed as Homo sapiens) [compound 165],Exon Expression in tumor types vs normal tissue panel: highly over-expressed (++),,BRCA
181: peptide found in NMUR2 (gene looked up) (IHGIKFHYF; listed as Homo sapiens) [compound 181],Exon Expression in tumor types vs normal tissue panel: over-expressed (+),,"PACA, UEC"
185: peptide found in CTLA4 (gene looked up) (LYICKVELM; listed as Homo sapiens) [compound 185],Exon Expression in tumor types vs normal tissue panel: highly over-expressed (++),,CLL
same,Exon Expression in tumor types vs normal tissue panel: over-expressed (+),,NHL
211: peptide found in PGR (gene looked up) (MLYFAPDLIL; listed as Homo sapiens) [compound 211],Exon Expression in tumor types vs normal tissue panel: highly over-expressed (++),,UEC
same,Exon Expression in tumor types vs normal tissue panel: over-expressed (+),,BRCA
219: peptide found in CCR8 (gene looked up) (KVVSGFYYI; listed as Homo sapiens) [compound 219],Exon Expression in tumor types vs normal tissue panel: highly over-expressed (++),,NHL
same,Exon Expression in tumor types vs normal tissue panel: over-expressed (+),,"BRCA, CCC, HNSCC, MEL, NSCLCadeno, NSCLCother, NSCLCsquam, OSCAR, UBC"
220: peptide found in CCR8 (gene looked up) (TYATHVTEI; listed as Homo sapiens) [compound 220],Exon Expression in tumor types vs normal tissue panel: highly over-expressed (++),,NHL
same,Exon Expression in tumor types vs normal tissue panel: over-expressed (+),,"BRCA, CCC, HNSCC, MEL, NSCLCadeno, NSCLCother, NSCLCsquam, OSCAR, UBC"
251: peptide found in CNR2 (gene looked up) (DYLLSWLLF; listed as Homo sapiens) [compound 251],Exon Expression in tumor types vs normal tissue panel: highly over-expressed (++),,CLL
same,Exon Expression in tumor types vs normal tissue panel: over-expressed (+),,NHL
342: peptide found in NPSR1 (gene looked up) (MYGIVIRTI; listed as Homo sapiens) [compound 342],Exon Expression in tumor types vs normal tissue panel: over-expressed (+),,"CRC, GBC, GC, PACA"
366: peptide found in TGM6 (gene looked up) (RLGEFVLLF; listed as Homo sapiens) [compound 366],Exon Expression in tumor types vs normal tissue panel: over-expressed (+),,"HNSCC, NSCLCsquam"

# For expression read-outs the peptide stands for its source gene, whose mRNA was measured; the gene is not named for every peptide.
